Results as given in paper PMC6155007.

Protein sequences, listed by entry. Tags and fused reporters are not part of them.
UniProt Q13547: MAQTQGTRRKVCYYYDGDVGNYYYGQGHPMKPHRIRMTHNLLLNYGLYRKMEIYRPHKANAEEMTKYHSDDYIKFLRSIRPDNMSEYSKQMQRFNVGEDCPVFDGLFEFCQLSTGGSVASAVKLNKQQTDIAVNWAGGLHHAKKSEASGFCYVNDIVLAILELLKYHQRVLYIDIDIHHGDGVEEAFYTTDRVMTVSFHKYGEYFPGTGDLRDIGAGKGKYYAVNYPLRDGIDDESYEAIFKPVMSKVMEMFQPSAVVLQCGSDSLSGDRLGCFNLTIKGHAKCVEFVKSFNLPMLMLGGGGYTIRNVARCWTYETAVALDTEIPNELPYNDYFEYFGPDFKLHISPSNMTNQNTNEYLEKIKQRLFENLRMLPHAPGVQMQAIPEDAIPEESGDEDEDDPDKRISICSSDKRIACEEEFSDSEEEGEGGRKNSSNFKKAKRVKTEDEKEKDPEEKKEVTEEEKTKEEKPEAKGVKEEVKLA

Target: T1, RSF1 (bait of the tandem affinity purification) (human) (UniProt Q96T23)
T1 sequence: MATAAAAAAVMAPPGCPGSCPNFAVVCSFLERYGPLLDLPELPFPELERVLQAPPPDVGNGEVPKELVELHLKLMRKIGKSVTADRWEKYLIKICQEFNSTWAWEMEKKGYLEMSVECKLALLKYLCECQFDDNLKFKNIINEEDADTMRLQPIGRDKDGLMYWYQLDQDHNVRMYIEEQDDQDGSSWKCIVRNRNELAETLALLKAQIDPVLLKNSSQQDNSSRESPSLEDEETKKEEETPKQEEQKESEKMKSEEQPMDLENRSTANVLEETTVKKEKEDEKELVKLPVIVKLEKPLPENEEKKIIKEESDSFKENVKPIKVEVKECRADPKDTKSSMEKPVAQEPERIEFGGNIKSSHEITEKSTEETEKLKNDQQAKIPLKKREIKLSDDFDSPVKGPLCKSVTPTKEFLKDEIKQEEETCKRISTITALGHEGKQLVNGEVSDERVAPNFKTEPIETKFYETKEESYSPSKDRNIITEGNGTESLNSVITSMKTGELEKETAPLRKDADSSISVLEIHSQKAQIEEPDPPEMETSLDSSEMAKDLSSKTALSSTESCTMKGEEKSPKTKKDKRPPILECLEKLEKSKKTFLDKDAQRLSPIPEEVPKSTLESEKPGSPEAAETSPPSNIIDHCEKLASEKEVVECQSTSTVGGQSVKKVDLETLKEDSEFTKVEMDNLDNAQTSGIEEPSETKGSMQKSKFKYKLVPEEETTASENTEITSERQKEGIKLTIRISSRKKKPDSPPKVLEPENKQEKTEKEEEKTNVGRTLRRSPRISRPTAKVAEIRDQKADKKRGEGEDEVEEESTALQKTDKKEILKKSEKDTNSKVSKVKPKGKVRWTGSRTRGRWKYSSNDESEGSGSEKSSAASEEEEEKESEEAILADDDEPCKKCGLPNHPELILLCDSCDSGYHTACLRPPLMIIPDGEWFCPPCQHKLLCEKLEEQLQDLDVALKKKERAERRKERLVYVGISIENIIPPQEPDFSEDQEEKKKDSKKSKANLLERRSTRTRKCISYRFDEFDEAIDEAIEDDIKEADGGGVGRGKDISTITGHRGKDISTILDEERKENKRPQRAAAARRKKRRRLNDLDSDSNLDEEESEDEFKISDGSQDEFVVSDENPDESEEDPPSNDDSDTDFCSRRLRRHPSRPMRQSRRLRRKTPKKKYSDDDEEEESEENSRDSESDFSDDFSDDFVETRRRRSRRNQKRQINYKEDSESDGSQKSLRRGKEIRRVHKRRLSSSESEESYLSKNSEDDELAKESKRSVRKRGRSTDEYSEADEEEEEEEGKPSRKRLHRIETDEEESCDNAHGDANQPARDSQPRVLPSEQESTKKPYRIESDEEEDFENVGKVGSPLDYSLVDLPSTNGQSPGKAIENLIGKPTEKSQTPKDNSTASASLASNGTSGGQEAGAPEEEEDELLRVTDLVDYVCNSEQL
Assay: affinity purification with mass spectrometry; tandem affinity purification of RSF1 followed by mass spectrometry analysis

“HDAC1 (endogenous) (from UniProt Q13547 1-482) (enzyme)” was tested, and the binding was “binds”.

These are yes or no findings as the source states them, for the method shown. Binding seen in cells or lysates may run through a third protein. A yes stands for co-enrichment or nearness to the bait. Other partners may have been found.
